Primary screen of a compound library

Protein sequences, listed by entry. Tags and fused reporters are not part of them.
UniProt I6X8D2, whole entry: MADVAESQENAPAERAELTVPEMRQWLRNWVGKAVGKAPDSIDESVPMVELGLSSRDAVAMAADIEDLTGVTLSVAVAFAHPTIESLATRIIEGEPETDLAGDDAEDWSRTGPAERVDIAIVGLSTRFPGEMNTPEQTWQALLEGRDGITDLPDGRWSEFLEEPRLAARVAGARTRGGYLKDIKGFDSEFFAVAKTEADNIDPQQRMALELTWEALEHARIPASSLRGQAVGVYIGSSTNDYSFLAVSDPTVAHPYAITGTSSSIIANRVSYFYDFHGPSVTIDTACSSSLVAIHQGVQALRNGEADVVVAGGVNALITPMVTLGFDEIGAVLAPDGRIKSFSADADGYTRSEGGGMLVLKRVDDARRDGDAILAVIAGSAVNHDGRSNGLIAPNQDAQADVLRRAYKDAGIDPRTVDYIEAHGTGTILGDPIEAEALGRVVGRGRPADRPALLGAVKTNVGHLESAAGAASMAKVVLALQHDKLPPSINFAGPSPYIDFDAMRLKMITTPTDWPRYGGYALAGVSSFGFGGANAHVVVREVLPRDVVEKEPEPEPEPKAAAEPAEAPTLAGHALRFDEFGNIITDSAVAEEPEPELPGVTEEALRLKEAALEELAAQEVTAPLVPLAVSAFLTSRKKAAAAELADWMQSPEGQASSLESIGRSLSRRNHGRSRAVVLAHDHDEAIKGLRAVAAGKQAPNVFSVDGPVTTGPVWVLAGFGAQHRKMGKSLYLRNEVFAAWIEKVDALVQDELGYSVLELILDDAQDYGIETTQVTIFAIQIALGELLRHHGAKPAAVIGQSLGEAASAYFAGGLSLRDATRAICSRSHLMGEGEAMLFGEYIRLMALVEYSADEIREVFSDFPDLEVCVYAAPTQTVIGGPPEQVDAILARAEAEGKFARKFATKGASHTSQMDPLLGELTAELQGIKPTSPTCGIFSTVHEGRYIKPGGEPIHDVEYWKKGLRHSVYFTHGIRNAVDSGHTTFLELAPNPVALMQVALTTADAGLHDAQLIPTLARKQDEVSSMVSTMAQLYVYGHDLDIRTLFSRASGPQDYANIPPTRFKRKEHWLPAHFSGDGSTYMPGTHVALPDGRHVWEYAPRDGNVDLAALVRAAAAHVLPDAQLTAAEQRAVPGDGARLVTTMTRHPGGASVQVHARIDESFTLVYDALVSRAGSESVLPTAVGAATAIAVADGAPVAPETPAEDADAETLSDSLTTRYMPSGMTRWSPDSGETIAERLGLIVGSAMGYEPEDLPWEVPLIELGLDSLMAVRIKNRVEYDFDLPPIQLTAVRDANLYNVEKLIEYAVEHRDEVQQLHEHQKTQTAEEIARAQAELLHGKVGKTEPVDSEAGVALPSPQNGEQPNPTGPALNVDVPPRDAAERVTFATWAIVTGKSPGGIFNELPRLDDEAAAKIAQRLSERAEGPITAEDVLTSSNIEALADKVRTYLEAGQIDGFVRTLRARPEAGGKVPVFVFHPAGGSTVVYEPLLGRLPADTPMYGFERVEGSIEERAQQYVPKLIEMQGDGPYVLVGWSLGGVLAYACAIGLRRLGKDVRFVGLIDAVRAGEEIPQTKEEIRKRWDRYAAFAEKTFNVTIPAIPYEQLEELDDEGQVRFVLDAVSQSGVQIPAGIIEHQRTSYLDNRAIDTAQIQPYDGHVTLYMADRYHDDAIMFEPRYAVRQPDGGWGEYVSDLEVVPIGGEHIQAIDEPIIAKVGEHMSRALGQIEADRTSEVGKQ

Results are given as percent effect. The record does not define 0% and 100%; most values in the screen are far below 50% and negative numbers occur (in some assays of this library far below -100). This is an unselected part of the compounds tested.

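Polyketide synthase Pks13, Mycobacterium tuberculosis (UniProt I6X8D2). Enzyme assay of the thioesterase domain of polyketide synthase 13; the read-out is not stated. Compounds at 30 µM. The record gives no direction; the compounds picked for IC50 retests had high values, so higher reads as stronger inhibition. Size under these conditions: about 67,000 compounds, about 300 of them at 50% or above in at least one test.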

COc1ccc2c(c1OC)Cc1c-2nc(N)c(C#N)c1C1CCOC1 (centres unmarked) read 41.83%.
CN1CCN2CCN(C(=O)c3cc4ncc(CCO)cn4n3)CC2C1 (centres unmarked) read 9.88%.
CCc1nc(CN2CCN(C(C)c3nc(C4CC4)no3)CC2)no1 (centres unmarked) read -14.69%.
O=C(Cn1ccc(=O)[nH]c1=O)NCc1cccnc1OCC(F)(F)F read -25.68%.
CC(NC(=O)NCCCN1CCCCCC1=O)c1nncn1C (centres unmarked) read -12.99%.
CC(O)CN1CCc2onc(-c3ccccc3F)c2C1 (centres unmarked) read -0.8417%.
CN(Cc1noc(C(C)(C)C)n1)Cc1ccccc1N1CCCC1 read 5.828%.
CN(C)C(=O)NCC(=O)N(C)Cc1cc(-c2ccccc2)no1 read 10.96%.
O=S(=O)(CCNCc1cccc2c1OCCO2)N1CCOCC1 read -12.14%.
Cc1cc(C[C@@H]2COC[C@H]2NCc2ccc(Br)s2)on1 read -30.28%.
CCc1ccc(C(=O)O)cc1S(=O)(=O)Nc1ccc(F)c(C#N)c1 read -1.545%.
CC(C)OCCC(=O)Nc1ncn(CC(=O)N2CCCCCC2)n1 read -13%.
Cc1oncc1C(=O)N1CC[C@H]2[C@H](CO[C@@H]2CNS(C)(=O)=O)C1 read -30.47%.
Cc1nn2cnnc2c(C)c1CCC(=O)Nc1nc2c(s1)CCC2 read -3.195%.
OC1(c2ccccc2F)CCN(Cc2ccccc2N2CCCC2)CC1 read 4.013%.
Cc1cc(=O)n(CC(=O)NCC2CCCO2)c(-c2cccc(Cl)c2)n1 (centres unmarked) read -24.34%.
O=C(COc1ccc(Cl)cc1)NCc1nncn1C1CC1 read 7.947%.
CC1=C[C@@H](CN2CCC(O)CC2)[C@H](C(C)C)C[C@H]1Cc1nnc(C)o1 read -1.047%.
Cc1cnn(C2CCCN(C(=O)c3sccc3C#N)C2)c1 (centres unmarked) read -12.77%.
Cc1ccc(OCC(=O)NS(=O)(=O)c2c(C)noc2C)cc1C read -4.198%.
O[C@@H]1CN(c2nc3ccccc3s2)CC[C@H]1c1ccc2c(c1)OCO2 read 14.86%.
CC(C)c1cc(C(=O)N2CCCC(c3cc(=O)nc4n3CCC4)C2)no1 (centres unmarked) read -3.893%.
Cc1ccc(F)cc1CC(=O)N(CCN1CCOCC1)Cc1ccco1 read -6.425%.
CCn1cnnc1C1CCN(C(=O)c2cc(C)n(CC)c2C)CC1 read -16.55%.
CCC(CO)(CO)NC(=O)C1CCC(=O)N(CCc2ccccc2)C1 (centres unmarked) read -1.979%.
CC1CCC(NC(=O)Nc2ccc(CC(=O)N(C)C)cc2)CC1 (centres unmarked) read 3.893%.
O=C(Cc1ccc2c(c1)CCC2)NCCNc1cnccn1 read 8.526%.
N#CCCn1cnc2c(Br)cc(Br)cc2c1=O read -1.997%.
CN(Cc1ccco1)[C@@H]1CN(Cc2ccncc2)C[C@@H]2CCCO[C@@H]21 read -13.49%.
Cn1ccc(CN2CCC(CC(=O)NC3CCCC3)CC2)cc1=O read -36.3%.
CC(C)c1cnc(CN(C)C2CCN(CCS(C)(=O)=O)C2)o1 (centres unmarked) read -11.16%.
Cc1ccc(N2CC[C@@H]3CN(Cc4c[nH]cn4)C[C@@H]3C2)nn1 read 12.45%.
O=c1c2cnc(N3CCCC3)nc2ccn1-c1cccc(C(F)(F)F)c1 read -23.93%.
COCCN(Cc1ccoc1)C(=O)CSc1ccc(F)cc1 read -6.497%.
Cc1nccn1-c1cc(CNC(=O)C2CCC(=O)N2)ccn1 (centres unmarked) read 5.793%.
N#Cc1ccc(F)c(CN2CCCC2Cn2cncn2)c1 (centres unmarked) read -34.22%.
CCn1cnnc1C1CCN(C(=O)c2ccoc2C)CC1 read -26.79%.
N#Cc1cccc(CN2C[C@@H]3CN(c4ncccn4)C[C@@H]3C2)c1 read -6.017%.
CCCc1nc(N[C@H]2COC[C@@H]2N2CCCC2)c2cnn(C)c2n1 read -22.94%.
Cc1cc2[nH]c(=O)oc2cc1S(=O)(=O)N1CCC(N2CCCC2=O)CC1 read -8.66%.
COCC(NC1CCSCC1)c1ccnn1C (centres unmarked) read -17.38%.
CC(=O)NCCn1ccc(-c2ccccn2)n1 read 17.73%.
Cc1nc(C2CCCN2C(=O)c2ccc(=O)n(C)n2)no1 (centres unmarked) read -24.91%.
Fc1cnc(N2CCO[C@H]3[C@H](OCCN4CCCC4)CC[C@@H]32)nc1 read -4.154%.
N#Cc1c(N)nc2c(c1-c1cnc(N3CCCC3)nc1)COCC2 read -18.09%.
CCO[C@H]1C[C@@H](O)C12CCN(C(=O)CC(F)(F)F)CC2 read -37.12%.
c1csc(-c2nc(CNC3CCc4ncnn4C3)co2)c1 (centres unmarked) read -5.125%.
CS(=O)(=O)Cc1nc(C2CC2)nn1-c1ccccn1 read -38.41%.
Cc1cccc(COC[C@@H]2CC[C@H]3[C@H](CCN3Cc3ccco3)O2)n1 read -20.24%.
CCOC(C)c1nc(Cn2cc(-n3cccc3)cn2)cs1 (centres unmarked) read -31.82%.
CCOC(=O)CNC(=O)N1CCOC(CCc2ccccc2)C1 (centres unmarked) read 20.1%.
CCNc1cc2c(nn1)CCN(C(=O)c1ccoc1)C2 read -11.53%.
CCN1CCC2(CC1)CC(NC(=O)c1ccnnc1)c1ccccc12 (centres unmarked) read -16.22%.
Cc1ccc(CC(=O)N2CCOCC2c2ncon2)cc1 (centres unmarked) read 1.272%.
CN(Cc1ccccc1F)C(C(N)=O)c1ccccc1 (centres unmarked) read 1.135%.
CCn1nc(C)c2c1cnn2CC(=O)NC(C)c1cccc(OC)c1 (centres unmarked) read 10.59%.
Cn1cccc1C(=O)N1CCCC2(CCN(CCN3CCCC3)C2=O)C1 (centres unmarked) read 0.7981%.

For reference, 4 entries once more:

* CCn1cnnc1C1CCN(C(=O)c2ccoc2C)CC1 : -26.79%
* CCOC(C)c1nc(Cn2cc(-n3cccc3)cn2)cs1 (centres unmarked) : -31.82%
* CCn1nc(C)c2c1cnn2CC(=O)NC(C)c1cccc(OC)c1 (centres unmarked) : 10.59%
* CC(=O)NCCn1ccc(-c2ccccn2)n1 : 17.73%

From ChEMBL document CHEMBL3988442, “University of Dundee, Small-Polar-MMV Screening Library” (2021).